These results are taken from PubChem BioAssay AID248 (DTP/NCI, 2004).

The experiment deals with L1210 leukemia ip in BDF1 mice, survival T/C. Briefly: NCI In Vivo Anticancer Drug Screen. Data for tumor model L1210 Leukemia (intraperitoneal) in B6D2F1 (BDF1) mice. The following applies: T/C endpoint: mean survival time, higher T/C = longer survival.
Where [1] appears, read: dose: 200.0 mg/kg/injection, schedule: Q01DX001 (ip), vehicle: saline.
Where [2] appears, read: dose: 400.0 mg/kg/injection, schedule: Q01DX001 (ip), vehicle: saline.
The mark [3] stands for this setting: dose: 200.0 mg/kg/injection, schedule: Q01DX009 (ip), vehicle: Klucel (hydroxypropylcellulose) (HPC).
Where [4] appears, read: dose: 200.0 mg/kg/injection, schedule: Q04DX003 (ip), vehicle: Klucel (hydroxypropylcellulose) (HPC).
Setting [5] is: dose: 400.0 mg/kg/injection, schedule: Q01DX009 (ip), vehicle: Klucel (hydroxypropylcellulose) (HPC).
Where [6] appears, read: dose: 400.0 mg/kg/injection, schedule: Q04DX003 (ip), vehicle: Klucel (hydroxypropylcellulose) (HPC).
Where [7] appears, read: dose: 100.0 mg/kg/injection, schedule: Q04DX003 (ip), vehicle: Klucel (hydroxypropylcellulose) (HPC).
Where [8] appears, read: dose: 400.0 mg/kg/injection, schedule: Q04DX003 (ip), vehicle: saline with Tween-80.
[9] abbreviates: dose: 100.0 mg/kg/injection, schedule: Q01DX001 (ip), vehicle: Klucel (hydroxypropylcellulose) (HPC).

Each structure is given as a SMILES string. The list does not hold the whole screen: it is rich in T/C values a quarter to a half above the control, in often repeated tests (any T/C) and in doses without a T/C. Other doses and runs of a compound stand elsewhere. T/C gives the treated animals as a percentage of the vehicle group. Some doses have a count of surviving animals in place of a T/C: the source holds a T/C of zero for them, seemingly a mark for toxic or unscored doses. Some doses without a T/C left all or most animals alive at the check, yet need not have been tolerated: the source hardly ever lists a survival T/C far under the control, and the zero likely stands for such cases as well. Counts of survivors are from the toxicity check (mostly the fifth day) where no day follows; animals may have died later. Schedules are NCI's codes, taken here to give the interval after Q, in days (D) or hours (H), and the number of doses after X. Some schedule codes hold Z or #, which are not explained here. Some doses were run more than once; the results are listed from low to high. For survival time, this PubChem deposit counts one and a half times the control or more as active, and values a quarter to a half above the control carry no call in these data; other NCI protocols may use other cut-offs. Some T/C values are followed by the survivors on the day toxicity was checked, most often the fifth; where none is given, no animal had died by that day.

With `COc1cccc(CNCc2cccc(OC)c2O)c1O`, the survivor count runs as follows: under setting [1], 3 of 6; under setting [2], 0 of 6.

For `CCOP(=S)(NN=C1CCCCC1)OCC`, the survivor count under setting [2] is given as 0 of 4.

As to `CCOC(=O)c1c(C)[nH]c2c1C(=O)C(=O)C=C2`, the survivor count by setting is: under setting [1], 1 of 4; under setting [2], 0 of 4.

Turning to `CC(=O)Nc1ccc(SSSc2ccc(NC(C)=O)cc2)cc1`, the survivor count (dose: 50.0 mg/kg/injection, schedule: Q01DX009 (ip), vehicle: water) is reported as 6 of 6; the survivor count (dose: 100.0 mg/kg/injection, schedule: Q01DX009 (ip), vehicle: water) is recorded as 5 of 6; the survivor count (dose: 400.0 mg/kg/injection, schedule: Q01DX009 (ip), vehicle: water) is listed as 4 of 6.

As for `Cc1ccccc1N=C(N)N=C(N)N`, the survivor count reads like this: under setting [3], 0 of 6; under setting [4], 2 of 6; under setting [5], 0 of 6; under setting [6], 0 of 6.

Turning to `CC1(C)SC(C(NC(=O)Cc2ccccc2)C(=O)O)NC1C(=O)O` (stereo not drawn), the survivor count (dose: 200.0 mg/kg/injection, schedule: Q01DX009 (ip), vehicle: saline with Tween-80) was 6 of 6.

For the compound `CS(=O)(=O)c1ccc(N)cc1`, the survivor count runs as follows: under setting [7], 0 of 6; under setting [4], 0 of 6; under setting [6], 0 of 6.

With `CCOC(=O)CNc1ccc(F)c(Cl)c1`, for the setting “dose: 400.0 mg/kg/injection, schedule: Q04DX002 (ip), vehicle: Klucel (hydroxypropylcellulose) (HPC)”, the T/C is 134 % of control.

As for `CC(C)OC(=O)C1(N)CCCC1`, the T/C is 133 % of control (dose: 45.0 mg/kg/injection, schedule: Q01DX Z (ip), vehicle: saline); 132 % of control (dose: 60.0 mg/kg/injection, schedule: Q01DX Z (ip), vehicle: other); 126 and 138 % of control (dose: 66.0 mg/kg/injection, schedule: Q01DX Z (ip), vehicle: saline); 143 % of control (dose: 90.0 mg/kg/injection, schedule: Q01DX Z (ip), vehicle: other); 126 % of control (dose: 100.0 mg/kg/injection, schedule: Q01DX Z (ip), vehicle: carboxymethylcellulose (CMC)); 136, 138, 147 % of control (dose: 100.0 mg/kg/injection, schedule: Q01DX Z (ip), vehicle: saline). In addition, the T/C is 143 % of control (dose: 135.0 mg/kg/injection, schedule: Q01DX Z (ip), vehicle: other); 126 and 136 % of control (dose: 150.0 mg/kg/injection, schedule: Q01DX Z (ip), vehicle: saline); 134 % of control (dose: 225.0 mg/kg/injection, schedule: Q01DX Z (ip), vehicle: saline); 127 % of control [5 of 6 alive] (dose: 336.0 mg/kg/injection, schedule: Q01DX Z (ip), vehicle: saline).

Take `O=C(C1C2C=CC(C2)C1C(=O)N1CCCCC1)N1CCCCC1` (stereo not drawn): the survivor count under setting [8] is reported as 0 of 3.

On to `O=C1CN=C(c2ccccc2Cl)c2cc(Cl)ccc2N1`, for which the survivor count under setting [6] is reported as 2 of 4.

On to `CC(C)c1cccc(O)c(=O)c1`, for which the survivor count under setting [8] is reported as 0 of 6.

Take `C1CCC2C[N-]CCC2C1.C1CCC2C[N-]CCC2C1.C1CCC2C[N-]CCC2C1.C1CCC2C[N-]CCC2C1.[Cl][Rh][Cl]` (stereo not drawn): the survivor count was 4 of 6 (dose: 0.5 mg/kg/injection, schedule: Q01DX009 (ip), vehicle: citric acid); 3 of 6 (dose: 1.0 mg/kg/injection, schedule: Q01DX009 (ip), vehicle: citric acid); 4 of 6 (dose: 4.0 mg/kg/injection, schedule: Q01DX009 (ip), vehicle: citric acid); 6 of 6 (dose: 6.25 mg/kg/injection, schedule: Q01DX009 (ip), vehicle: saline with Tween-80); 5 of 6 (dose: 8.0 mg/kg/injection, schedule: Q01DX009 (ip), vehicle: Klucel (hydroxypropylcellulose) (HPC)); 0 of 6 (dose: 8.0 mg/kg/injection, schedule: Q01DX009 (ip), vehicle: citric acid). Besides, the survivor count was 0 of 6 (dose: 12.5 mg/kg/injection, schedule: Q01DX009 (ip), vehicle: saline with Tween-80); 3 of 6 and 4 of 6 (dose: 12.5 mg/kg/injection, schedule: Q04DX003 (ip), vehicle: saline with Tween-80); 3 of 6 (dose: 25.0 mg/kg/injection, schedule: Q04DX003 (ip), vehicle: saline with Tween-80); 1 of 6 (dose: 50.0 mg/kg/injection, schedule: Q04DX003 (ip), vehicle: saline with Tween-80); 0 of 6 (dose: 100.0 mg/kg/injection, schedule: Q04DX003 (ip), vehicle: saline with Tween-80); 0 of 6 (dose: 200.0 mg/kg/injection, schedule: Q04DX003 (ip), vehicle: saline with Tween-80). Also, the survivor count under setting [8] is 0 of 6.

For the compound `CCCCCCCCCCCCCC(=O)OC1CCC2(C)C(=CCC3C2CCC2(C)C(C(C)CCCC(C)C)CCC32)C1` (stereo not drawn), under setting [9], the survivor count is on record as 3 of 3.

Regarding `BrCC(Br)=C(Br)Br`, the survivor count runs as follows: (dose: 25.0 mg/kg/injection, schedule: Q04DX003 (ip), vehicle: Klucel (hydroxypropylcellulose) (HPC)) 1 of 6; (dose: 50.0 mg/kg/injection, schedule: Q04DX003 (ip), vehicle: Klucel (hydroxypropylcellulose) (HPC)) 0 of 6; under setting [9], 1 of 6; under setting [7], 0 of 6; (dose: 200.0 mg/kg/injection, schedule: Q01DX001 (ip), vehicle: Klucel (hydroxypropylcellulose) (HPC)) 1 of 6; (dose: 400.0 mg/kg/injection, schedule: Q01DX001 (ip), vehicle: Klucel (hydroxypropylcellulose) (HPC)) 0 of 6.

Take `Clc1ccc(CC[PH+]2CC=CC2)cc1.Clc1ccc(CC[PH+]2CC=CC2)cc1.[Cl][Ni][Cl]`: the T/C (dose: 200.0 mg/kg/injection, schedule: Q04DX002 (ip), vehicle: saline with Tween-80) is 127 % of control. The survivor count (dose: 400.0 mg/kg/injection, schedule: Q04DX002 (ip), vehicle: saline with Tween-80) was 0 of 3.

As for `CC(C)c1ccc(C(c2ccc(C(C)C)cc2)c2ccc(C(C)C)cc2)cc1`, for the setting “dose: 400.0 mg/kg/injection, schedule: Q01DX001 (ip), vehicle: saline with Tween-80”, the survivor count is 6 of 6.

For `Nc1nc(N)c2[nH]cnc2n1`, the survivor count runs as follows: (dose: 50.0 mg/kg/injection, schedule: Q01DX Z (ip), vehicle: carboxymethylcellulose (CMC)) 6 of 6; (dose: 100.0 mg/kg/injection, schedule: Q01DX009 (ip), vehicle: Klucel (hydroxypropylcellulose) (HPC)) 6 of 6; under setting [3], 5 of 6; under setting [5], 1 of 6; (dose: 800.0 mg/kg/injection, schedule: Q01DX009 (ip), vehicle: Klucel (hydroxypropylcellulose) (HPC)) 3 of 6.

As for `O=C(O)C1(Cl)CC2C=CC1C2` (stereo not drawn), the survivor count reads like this: (dose: 400.0 mg/kg/injection, schedule: Q04DX003 (ip), vehicle: gum acacia) 3 of 6; under setting [8], 5 of 6.

Consider `CC(=O)Oc1cc(OC(C)=O)c2c(OC(C)=O)c3c(OC(C)=O)cc(C)cc3cc2c1`, for which the survivor count is on record as 1 of 6 (dose: 20.0 mg/kg/injection, schedule: Q01DX001 (ip), vehicle: saline); 0 of 6 (dose: 40.0 mg/kg/injection, schedule: Q01DX001 (ip), vehicle: saline); 0 of 6 (dose: 80.0 mg/kg/injection, schedule: Q01DX001 (ip), vehicle: saline).
